For 36 compounds, AC50 results are on record in PubChem BioAssay AID1487 (National Center for Advancing Translational Sciences (NCATS), 2009).

The nature of this test: qHTS Assay for Modulators of Lamin A Splicing. The following applies: HeLa LMNA splicing GFP/RFP minigene ratio, 48 h. In outline:
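S3 HeLa stable clones carrying a lamin A-EGFP splicing minigene plus DsRed2 were seeded at 600 cells/well in Opti-MEM with 2% FBS, pin-dosed and incubated 48 h at 37°C. Acumen cytometry (488 nm) gave the GFP/RFP total-intensity ratio.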
(In general: Quantitative high-throughput screening tests each substance at several concentrations.)

Setting [1] is: measured here: RFP viability control channel.
Setting [2] is: measured here: GFP splicing reporter channel.

This is one part of the list. Shown are side measurements of this screen, not its main read-out; they come without a call. The list favours compounds with an active or inconclusive main result. The note in brackets gives the kind of curve behind each potency; many fits are weak.

Regarding `CC1=NN(c2ccc(Cl)cc2)C(=O)C1C(c1ccccc1O)c1c(C)[nH]n(-c2ccc(Cl)cc2)c1=O` (stereo not drawn), the AC50 under setting [1] was 12.6 µM [rising, single point].
For the compound `Cc1ccc2[nH]c(O)c(N=NC(=O)C3CC3c3ccccc3)c2c1Br` (stereo not drawn), the AC50 under setting [1] is 11.2 µM [rising, partial curve, poor fit].
The same measure, in the same setting: next, `Cc1ccc(NNC(=O)c2ccno2)cc1Cl`: 0.0708 µM [falling, partial curve, poor fit]; `COc1ccc(/C=N\NC(=O)CNC(=O)C(c2ccccc2)c2ccccc2)cc1[N+](=O)[O-]`: 0.251 µM [rising, full curve, poor fit]; `COc1ccccc1NS(=O)(=O)c1cc(NC(=O)Nc2cccc(C)c2)ccc1N1CCCCC1`: 0.178 µM [rising, full curve].
For the compound `Nc1nc(NCc2ccco2)nc(N2CCCCCC2)c1[N+](=O)[O-]`, the AC50 reads like this: under setting [2], 0.891 µM [rising, full curve]; under setting [1], 7.08 µM [rising, partial curve].
Turning to `CCC1(c2ccc(F)cc2)NC(=O)N(CC(=O)Nc2ccc(C)c(S(=O)(=O)N3CCOCC3)c2)C1=O` (stereo not drawn), the AC50 is 5.01 µM [rising, partial curve] under setting [2] and 7.94 µM [rising, partial curve] under setting [1].
For `COc1ccc(-c2csc(N3CCN(C(=O)c4ccco4)CC3)n2)cc1`, the AC50 under setting [1] is 35.5 µM [rising, single point].
As for `O=S(=O)(NCCc1ccc(F)cc1)c1cccc2cccnc12`, the AC50 under setting [2] is 0.0355 µM [rising, full curve, poor fit].
In the case of `CC[n+]1c(/C=C2\C=C(C)CC(C)(C)C2)sc2ccccc21`, the AC50 under setting [2] is 5.62 µM [rising, partial curve] and the AC50 under setting [1] is 3.16 µM [rising, full curve, poor fit].
On to `CCc1nc2c(sc3nc4c(cc32)COC(C)(C)C4)c(=O)n1Cc1ccco1`, for which the AC50 under setting [1] was 20 µM [rising, single point].
Take `COc1cc(-c2c(C#N)c(N)nc3c2CCCC3)ccc1O`: the AC50 by setting is: under setting [2], 15.8 µM [rising, single point]; under setting [1], 17.8 µM [rising, single point].
For `CN1CCN(c2ncc3nc(CCc4ccccc4)c(=O)n(CCc4ccccc4)c3n2)CC1`, the AC50 under setting [1] was 15.8 µM [falling, single point].
With `O=C(CN1C(=O)C2C3CCC(C3)C2C1=O)N1CCN(Cc2ccccc2)CC1` (stereo not drawn), under setting [1], the half-maximal activity concentration (AC50) was 0.00447 µM [falling, full curve, poor fit].
Consider `Cc1ccc(C(=O)c2c[nH]c(C(=O)NCc3cccnc3)c2)cc1`, for which the AC50 under setting [1] was 10 µM [rising, partial curve, poor fit].
`C[C@@H]1Cc2ccccc2N1NC(=O)c1ccc(Cl)c(S(N)=O)c1` (stereo partly drawn): the AC50 runs as follows: under setting [2], 0.00447 µM [falling, full curve, poor fit]; under setting [1], 1.78 µM [falling, partial curve].
For the compound `Cn1nnnc1SCCNCc1ccccc1OCc1ccc(Cl)cc1`, the AC50 under setting [1] was 17.8 µM [rising, partial curve].
Same read-out and setting: for `COc1cc(/C=N/NC(=O)c2ccoc2C)ccc1O` the value was 20 µM [rising, partial curve, poor fit].
As to `COc1ccc(OC)c(Nc2cc(C)nc3ccccc23)c1`, the AC50 reads like this: under setting [2], 12.6 µM [rising, single point]; under setting [1], 12.6 µM [rising, single point].
For the compound `CCCc1cc(C(=O)N2CCN(S(=O)(=O)c3ccc(OC)c(OC)c3)CC2)cs1`, the AC50 under setting [1] was 31.6 µM [rising, single point].
Still for that read-out and setting: for `c1ccc(-c2nnc(SCc3nc4ccccc4[nH]3)n2Cc2ccco2)nc1` the value was 12.6 µM [rising, single point]; for `CCc1ccc(Sc2cc(C(=O)NCCCOC(C)C)c3ccccc3n2)cc1`, 0.447 µM [falling, full curve, poor fit]; for `CCOc1ccc2[nH]c3c(N4CCN(c5ccccn5)CC4)ncnc3c2c1`, 31.6 µM [rising, single point].
With `O=C(CSc1n[nH]c(-c2cccs2)n1)N1CCN(S(=O)(=O)c2ccc3ccccc3c2)CC1`, the AC50 under setting [1] is 12.6 µM [rising, partial curve].
With `Cc1ccc(S(=O)(=O)Nc2c(C)ccc3nsnc23)cc1`, under setting [1], the AC50 is 11.2 µM [rising, single point].
In the case of `O=C(NC(c1ccc(Cl)cc1)c1cc(Cl)c2cccnc2c1O)c1cccnc1` (stereo not drawn), the AC50 runs as follows: under setting [2], 5.01 µM [rising, full curve]; under setting [1], 3.55 µM [rising, full curve].
Turning to `CC(C(=O)NC1CCCC1)N(C(=O)c1ccc(-c2ccccc2)[nH]1)c1ccccc1F` (stereo not drawn), the AC50 under setting [2] is 12.6 µM [falling, single point] and the AC50 under setting [1] is 35.5 µM [falling, single point].
For the compound `OCCN1CCN(CC/C=C2\c3ccccc3Sc3ccc(C(F)(F)F)cc32)CC1`, under setting [2], the AC50 was 0.00126 µM [falling, full curve, poor fit].
For the compound `CN/N=C/c1ccc(C#N)cc1`, the AC50 under setting [1] was 3.98 µM [rising, full curve, poor fit].
`CCOC(=O)N1CCN(C(=O)C(NC(=O)c2ccc(CC)cc2)C(C)C)CC1` (stereo not drawn): the AC50 is 3.55 µM [rising, partial curve, poor fit] under setting [2] and 14.1 µM [rising, single point] under setting [1].
Take `CC1Nc2ccccc2C(=O)N1NC(=O)c1ccc(Br)cc1` (stereo not drawn): the AC50 under setting [2] was 0.0562 µM [rising, full curve, poor fit].
Turning to `CCOC(=O)C(C)n1nc(C)c2sc3ccccc3c2c1=O` (stereo not drawn), the AC50 under setting [1] was 5.62 µM [rising, single point].
Turning to `O=C(Nc1ccc(Cc2ccncc2)cc1)c1cccc([N+](=O)[O-])c1`, the AC50 is, setting by setting: under setting [2], 2.82 µM [rising, partial curve]; under setting [1], 11.2 µM [rising, partial curve].
For the compound `Cc1cc(C(=O)N/N=C/c2cc([N+](=O)[O-])ccc2O)c2ccccc2n1`, the AC50 is, setting by setting: under setting [2], 12.6 µM [rising, single point]; under setting [1], 15.8 µM [rising, partial curve].
Take `O=C(CSc1ncc(CO)n1Cc1ccc(Cl)cc1)NCc1ccc(F)cc1`: the AC50 under setting [2] is 39.8 µM [falling, single point].
Take `Cc1ccccc1C(=O)Nc1ccc(C(=O)OCc2cc(=O)n3nc(C(C)C)sc3n2)cc1`: the AC50 by setting is: under setting [2], 2.51 µM [falling, partial curve, poor fit]; under setting [1], 12.6 µM [rising, single point].

A word on the AC50: it is the concentration at which the activity in the assay is half-maximal.
